Results taken from patent publication US8178575B2, “Derivatives of azabicyclo octane, the method of making them and the uses thereof as inhibitors of dipeptidyl peptidase IV” (Shanghai Hengrui Pharmaceutical Co., Ltd., priority 2007, dated 2012).
Structures can show the parent of a compound that is named as a salt. At least one structure is not confirmed: it was looked up by name or label, or the drawing left a doubt.

Tests used:
normal ICR mice = experiment: Oral glucose tolerance test in normal ICR mice; format: in vivo; details: 1, 3, 10 mg/kg by gavage, two experiments
Protocol: Normal male ICR mice were randomly grouped according to weights, 6 mice in each group. The groups included a blank control group as well as different doses of the treatment groups as follows:
Animals in each group had been fasted for 6 hours, and then pretreated with compounds or double distilled water by gavage respectively in single administration. 30 minutes later, animals were administered 2.5 g/kg glucose by gavage. Before administration and after administration of glucose at 30, 60 and 120 minuets, blood was taken to determine serum glucose levels.
Serum glucose is determined by glucose kit. 250 μl working enzyme solution was taken, and then 5 μl serum was added to the solution. A blank tube (5 μl double distilled water was added) and a standard tube (5 μl glucose standard solution was added) were established simultaneously, shaking respectively, and in 37° C. water bath for 20 minutes. The blank tube was tuned with, and then calorimetric assay was determined at OD505 nm. Serum glucose concentration (BG, mmol/l)=ODsample tube/ODstandard tube×5.55 Data Processing and Statistical Analysis: • 1. Mean±SD and Student-t test were used in data statistical analysis. • 2. The percentage of blood glucose decline in 30 minutes after sugar administration as well as the area under the curve (AUC) was calculated.

[1] = system: type II diabetes KKAy mice; experiment: Oral glucose tolerance test in type II diabetes KKAy mice; format: in vivo
Protocol: Normal KKAy mice had been fasted for 6 hours, and then were randomly grouped according to weights and fasting blood glucose, 5 mice in each group. The groups included a blank control group as well as different doses of the treatment groups as follows:
30 minutes later, animals were administered 2.5 g/kg (female KKAy mice) or 1.5 g/kg (male KKAy mice) glucose by gavage. After administration of glucose at 30, 60 and 120 minuets, serum glucose levels were determined by Glucometer.
• 3. Mean±SD and Student-t test or Anova were used in data statistical analysis. • 4.

COC(=O)N1C[C@H]2C[C@@H](NCC(=O)N3CCC[C@H]3C#N)C[C@H]2C1 (relative stereo) [Example 2, cis-5-[2-(2-Cyano-pyrrolidin-1-yl)-2-oxo-ethylamino]-hexahydro-cyclopenta[c]pyrrole-2-carboxylic acid methyl ester hydrochloride]
hypoglycemic effect on oral glucose tolerance test (conclusion) (normal ICR mice): significant hypoglycemic effect | hypoglycemic effect on oral glucose tolerance test (conclusion) [1]: some hypoglycemic effects
